Test results as given in publication PMC4311984.
No constants are given. Whether binding was seen depends on the method and setting.

T1: major birch pollen allergen Bet v 1.0101 (birch), P15494
T1 chain: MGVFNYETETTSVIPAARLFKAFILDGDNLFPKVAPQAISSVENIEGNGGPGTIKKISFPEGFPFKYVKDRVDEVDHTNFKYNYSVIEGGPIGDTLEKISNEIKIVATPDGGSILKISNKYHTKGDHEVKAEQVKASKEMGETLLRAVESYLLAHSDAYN

B1: major birch pollen allergen Bet v 1.0101, P15494 1-160 (protein)
chain: T1 chain
B2: celery allergen Api g 1.0101 (protein, UniProt P49372 1-154)
chain: MGVQTHVLELTSSVSAEKIFQGFVIDVDTVLPKAAPGAYKSVEIKGDGGPGTLKIITLPDGGPITTMTLRIDGVNKEALTFDYSVIDGDILLGFIESIENHVVLVPTADGGSICKTTAIFHTKGDAVVPEENIKYANEQNTALFKALEAYLIAN

Key:
[1] = target: T1, major birch pollen allergen Bet v …; assay: SEC; Superdex S75 10/300; 75 μl of protein at 1 mg/ml injected; 50 mM Na-phosphate buffer, pH 7.4, 150 mM NaCl, 0.02% (w/v) sodium azide; calibrated with Bio-Rad Gel Filtration Standard and bovine aprotinin; duplicates; both purified; conditions: remark: other sources report otherwise
[2] = target: celery allergen Api g 1.0101 (celery) (UniProt P49372); assay: as above

binding [1] | binding [2] | Binder
no binding (tested: 1 mg/ml) |  | B1
 | no binding (tested: 1 mg/ml) | B2
